Data as given in PubChem BioAssay AID504791 (Drosophila RNAi Screening Center, 2011).
The deposit covers about 23,000 reagents; below is a random part of those that have a named target and a result. In the full data, 199 (0.86%) are marked active. 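Plate-scaled ratios behind the calls are not deposited; printed light signals are raw; many rows marked increased or decreased are still called inactive.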 The numbers tell different reagents against one gene apart. Names joined by + are all predicted targets of the reagent. Reagent sequences are not shown.

Assay: 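Factors in Argonaute-based small RNA production and activity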 (primary screen)
Cells: Drosophila S2-derived reporter cells
Reagent: long dsRNA against Drosophila genes, about 150-250 ng dsRNA per well (siRNA assay); about 80-120 ng (miRNA assay)
Duration: about 5 days (siRNA assay); about 4 days (miRNA assay)
Treatment: copper sulfate induction of reporters: 25 µM (siRNA assay); 200 mM stated (miRNA assay), 1-2 days before reading
Measurement: 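Per-well ratio of Renilla over firefly light, expressed relative to that plate's average ratio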
Reading the numbers: siRNA reporter hit score: higher = 3 marks a strong hit with raised ratio; -3 a strong hit with lowered ratio
Active means: 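a well was a first-pass pick when its plate-scaled ratio rose above 1.5 (siRNA assay) or 1.6 (miRNA assay), or dropped below 0.6; a gene counted only if two separate dsRNAs agreed on retest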

Target gene | reagent no. | siRNA reporter hit score | stable siRNA reporter change | miRNA reporter change | stable assay Renilla, run 1 (luminescence) | stable assay firefly, run 1 (luminescence) | outcome
asp | 1 | – | – | – | 10514 | 3.98e5 | inactive
CG5721 | 1 | – | – | – | 7968 | 3.24e5 | inactive
CG8435 | 1 | -3 | – | – | 11105 | 4.57e5 | inactive
gnu | 1 | – | – | – | 9282 | 3.37e5 | inactive
GATAe | 1 | – | reporter ratio raised past the hit cutoff | – | 3812 | 1.42e5 | inactive
GATAe | 2 | – | – | – | 3943 | 3.42e5 | inactive
inaC | 1 | – | – | – | 8818 | 2.37e5 | inactive
CG11666 | 1 | – | – | – | 11484 | 6.34e5 | inactive
CG2116 | 1 | – | – | – | 7999 | 5.53e5 | inactive
Sirt2 | 1 | – | – | – | 7178 | 3.57e5 | inactive
CG9886 | 1 | – | – | – | 11066 | 5.99e5 | inactive
TfIIA-S | 1 | – | – | – | 6055 | 3.44e5 | inactive
dup | 1 | – | – | – | 5115 | 3.66e5 | inactive
eve | 1 | – | – | – | 6826 | 4.81e5 | inactive
lncRNA:CR41601 | 1 | – | – | – | 9019 | 6.36e5 | inactive
jb | 1 | – | – | – | 5596 | 3.41e5 | inactive
CG5877 | 1 | – | – | – | 8198 | 4.76e5 | inactive
pncr003:2L (retired record) | 1 | – | – | – | 8918 | 5.97e5 | inactive
CG7950 + Rpp14a | 1 | – | – | reporter ratio lowered past the hit cutoff | 7726 | 4.70e5 | inactive
CG8673 | 1 | – | – | – | 7408 | 4.12e5 | inactive
CG30116 | 1 | – | – | – | 8527 | 2.34e5 | inactive
CG30116 | 2 | – | – | – | 5376 | 3.56e5 | inactive
aos | 1 | – | – | – | 8651 | 4.61e5 | inactive
CG31230 | 1 | – | – | – | 9134 | 8.19e5 | inactive
CG31230 | 2 | – | – | reporter ratio raised past the hit cutoff | – | – | inactive
NKCC | 1 | – | reporter ratio raised past the hit cutoff | – | 16394 | 4.60e5 | inactive
NKCC | 2 | – | – | – | 6843 | 3.81e5 | inactive
CG30470 (retired record) | 1 | – | – | – | 4036 | 2.09e5 | inactive
CG30470 (retired record) | 2 | – | – | – | 5232 | 3.26e5 | inactive
CG30470 (retired record) | 3 | – | – | – | 6318 | 3.03e5 | inactive
CG30470 (retired record) | 4 | – | – | – | 5479 | 2.93e5 | inactive
CG30470 (retired record) | 5 | – | – | – | 4691 | 3.67e5 | inactive
CG17191 | 1 | – | – | – | 6046 | 3.51e5 | inactive
CG3184 | 1 | – | – | – | 7539 | 3.81e5 | inactive
eRF1 | 1 | – | – | – | 7515 | 3.81e5 | inactive
Mink | 1 | – | – | – | 9233 | 3.17e5 | inactive
cl | 1 | – | – | – | 1.81e5 | 73000 | inactive
CG5984 | 1 | – | – | – | 6266 | 3.44e5 | inactive
Eglp1 | 1 | – | – | – | 2.19e5 | 7.09e5 | inactive
CG9308 | 1 | – | – | – | 7739 | 4.58e5 | inactive
CG34197 (retired record) | 1 | – | – | – | 7019 | 5.27e5 | inactive
CG8838 | 1 | – | – | – | 32744 | 3.41e5 | inactive
Fbxo42 | 1 | – | – | – | 7486 | 7.46e5 | inactive
Cdc5 | 1 | – | – | – | 10397 | 4.23e5 | inactive
Cad86C | 1 | – | – | – | 6030 | 3.39e5 | inactive
Cad86C | 2 | – | – | – | 6447 | 3.60e5 | inactive
CG15169 | 1 | – | – | – | 6435 | 4.03e5 | inactive
CycK | 1 | -3 | – | – | 8344 | 5.90e5 | inactive
Poxm | 1 | – | – | – | 3772 | 3.38e5 | inactive
Poxm | 2 | – | – | – | 5523 | 3.44e5 | inactive
CG13833 | 1 | – | – | – | 8205 | 4.89e5 | inactive
Or45a | 1 | – | – | – | 5388 | 2.49e5 | inactive
meso18E | 1 | – | – | – | 6828 | 6.19e5 | inactive
CG31562 (retired record) | 1 | – | – | – | 6862 | 3.85e5 | inactive
CG31562 (retired record) | 2 | – | – | – | 7043 | 3.91e5 | inactive
CG42820 + CG42819 | 1 | – | – | – | 8006 | 4.30e5 | inactive
CG42820 + CG42819 | 2 | – | – | – | 7067 | 3.90e5 | inactive
